PKR % activation and AC50 data for four molecules are collected here from patent publication US11566030B2, “Substituted 2,6-dihydropyrrolo[3,4-c]pyrazoles as pyruvate kinase activators” (priority 2021, dated 2023).

Chains of the proteins cited; added tags and fusions are not shown. Residues count along the entry.
UniProt P30613, 14-574 limits assumed: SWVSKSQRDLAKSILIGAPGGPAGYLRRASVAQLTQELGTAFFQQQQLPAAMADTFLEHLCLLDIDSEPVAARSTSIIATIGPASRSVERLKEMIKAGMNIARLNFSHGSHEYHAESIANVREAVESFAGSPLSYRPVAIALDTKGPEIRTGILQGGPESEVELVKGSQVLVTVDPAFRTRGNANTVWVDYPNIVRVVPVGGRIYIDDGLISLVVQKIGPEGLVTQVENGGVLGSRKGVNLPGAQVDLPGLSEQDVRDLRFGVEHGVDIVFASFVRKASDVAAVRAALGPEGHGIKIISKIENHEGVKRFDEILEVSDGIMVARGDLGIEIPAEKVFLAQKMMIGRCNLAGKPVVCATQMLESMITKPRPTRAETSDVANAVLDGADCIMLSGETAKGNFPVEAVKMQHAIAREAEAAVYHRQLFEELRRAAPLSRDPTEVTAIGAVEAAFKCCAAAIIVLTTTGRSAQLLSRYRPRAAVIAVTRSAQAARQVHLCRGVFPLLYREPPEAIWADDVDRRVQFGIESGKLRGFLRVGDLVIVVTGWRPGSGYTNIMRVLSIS

Structures were worked out from names or drawings and are uncertain.

For this assay, the target named is Human pyruvate kinase R (PKR) (Homo sapiens, UniProt P30613). Kind of assay: Biochemical assay for activation of pyruvate kinase R (Kinase-Glo luminescence, ATP generation). The conditions noted are these: for PKR % activation: maximal activation level achieved with each compound relative to the activation level achieved by AG-348 @ 10 μM; for AC50: read-out: PKR AC50, 0.1 nM PKR, 0.3 mM ADP, 0.1 mM PEP, 1% DMSO.

As a reminder, the AC50 is the concentration at which the activity in the assay is half-maximal. As to `O=C([C@@H](CO)c1ccccc1F)N1Cc2cn(S(=O)(=O)c3ccn(CC(F)F)n3)nc2C1`, the PKR % activation is 119% and the concentration at half-maximal activity (AC50) came to 46 nM.
On the same counts, the results for `CCOc1nc(C)c(S(=O)(=O)n2cc3c(n2)CN(C(=O)[C@H](CO)c2ccccc2)C3)s1` (single isomer, unassigned) are 51% and 11 nM.
As to `COc1nc(C)c(S(=O)(=O)n2cc3c(n2)CN(C(=O)[C@H](CO)c2ccccc2)C3)s1` (single isomer, unassigned), the PKR % activation was 73% and the concentration at half-maximal activity (AC50) came to 22 nM.
Taken in the same sequence, the figures for `Cc1nc(OCC(F)F)sc1S(=O)(=O)n1cc2c(n1)CN(C(=O)[C@H](CO)c1ccccc1)C2` (single isomer, unassigned) were 0% and 570 nM.
